# These are yes or no findings as the source states them, for the method shown. In cells and extracts the contact can be indirect. These calls come from enrichment with a bait or labelling near it, and not all partners need be listed. Tags and fused reporters may be left off the sequences shown.
# By UniProt entry, the sequences of proteins in these tests, tags left out. Residues count along the entry.
# UniProt P12314, residues 16-374: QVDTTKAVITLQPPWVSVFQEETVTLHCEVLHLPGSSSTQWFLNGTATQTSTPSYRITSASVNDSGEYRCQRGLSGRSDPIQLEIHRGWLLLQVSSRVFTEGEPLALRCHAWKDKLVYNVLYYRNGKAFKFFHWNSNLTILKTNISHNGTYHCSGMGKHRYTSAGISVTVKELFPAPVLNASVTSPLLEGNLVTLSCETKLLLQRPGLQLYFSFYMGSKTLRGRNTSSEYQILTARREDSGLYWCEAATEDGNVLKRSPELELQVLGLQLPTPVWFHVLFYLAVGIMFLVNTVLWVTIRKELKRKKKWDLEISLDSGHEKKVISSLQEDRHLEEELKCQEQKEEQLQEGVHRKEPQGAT
# Target: T1, Histidine‐rich glycoprotein (His-HRG) (UniProt P04196)
# T1 sequence: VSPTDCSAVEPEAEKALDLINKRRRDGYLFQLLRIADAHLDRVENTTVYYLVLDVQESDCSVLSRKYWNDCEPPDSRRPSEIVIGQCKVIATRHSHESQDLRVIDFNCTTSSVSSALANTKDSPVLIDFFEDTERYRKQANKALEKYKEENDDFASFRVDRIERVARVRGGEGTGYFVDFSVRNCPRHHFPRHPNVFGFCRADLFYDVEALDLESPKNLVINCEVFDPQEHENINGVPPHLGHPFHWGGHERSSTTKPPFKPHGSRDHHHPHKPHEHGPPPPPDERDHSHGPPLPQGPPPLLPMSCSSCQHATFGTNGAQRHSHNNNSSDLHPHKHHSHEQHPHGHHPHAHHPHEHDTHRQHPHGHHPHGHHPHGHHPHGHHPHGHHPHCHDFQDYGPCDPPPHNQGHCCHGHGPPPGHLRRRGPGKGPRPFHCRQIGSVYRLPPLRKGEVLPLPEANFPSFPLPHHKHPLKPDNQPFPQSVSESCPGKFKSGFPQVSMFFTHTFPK
# Assay: affinity purification with mass spectrometry; His-pulldown of human neutrophil membrane proteins treated with His-HRG for 8 h, then LC-MS/MS; only the target purified
substance,measurement,value
FCγR1 of the human neutrophil membrane (from UniProt P12314 16-374) (receptor),binding,binds
